In all, about 310,000 compounds went through this assay and about 18,000 (5.8%) were called active. All entries are inconclusive by the source's own rule. Clear calls are listed elsewhere. Calls come from the whole dose curve; as a rule, active = well fitted inhibition curve with a large enough effect; inconclusive = small, poorly fitted or top-dose-only effect, or another doubt; inactive = no such curve, though single readings can be large or run the other way. Some tests of the compounds listed are not included; inactive here does not mean inactive elsewhere.
test: Primary qHTS for delayed death inhibitors of the malarial parasite plastid, 48 hour incubation; settings: P. falciparum luciferase growth in erythrocytes
Source text: The goal of this screen is to discover new antimalarial compounds that act by inhibiting the development of the apicoplast in the malarial parasite Plasmodium falciparum. The biochemical processes that make this organelle essential for erythrocytic stage parasites are not well understood. However, antibiotics such as azithromycin and tetracycline, which target the apicoplast translational machinery, have a potent antimalarial effect.
We have developed a cell-based assay that measures parasite growth based on the expression of an integrated copy of a firefly luciferase reporter. To detect small molecules that cause this "delayed death" phenotype, erythrocytes infected with the luciferase-expressing parasites were incubated with compounds for either one or two generations, corresponding to 48 and 96 hours, respectively. […] Growth inhibition is detected by a decrease in luciferase activity. […]
Four microliters of culture medium (RPMI 1640 with 0.5% w/v Albumax (GIBCO), 24 mM sodium bicarbonate and 10 ug/mL gentamycin) were dispensed by a Multi-drop Combi into white solid 1536-well plates (Grenier) and 23 nL compound was added by a pin tool. […] Two microliters of luciferase detection reagent was added and luminescence was detected by a ViewLux (PerkinElmer) reader.
Potency is the fitted concentration of half-maximal effect.

Structure (SMILES) | Potency
CN1[C@@H]2CC[C@H]1CC(OC(=O)C(O)(c1ccccc1)c1ccccc1)C2 (some centres not stated) | inconclusive: 9.28 µM
CN1CCCC(OC(=O)C(O)(c2ccccc2)c2ccccc2)C1 (configuration not stated) | inconclusive: 7.57 µM

From PubChem BioAssay AID504832 (National Center for Advancing Translational Sciences (NCATS), 2011)
